Amino acid sequences for entries named in this document (tags omitted). A change or cut given only in a name is not applied to a line headed by its entry.
UniProt Q80SU3: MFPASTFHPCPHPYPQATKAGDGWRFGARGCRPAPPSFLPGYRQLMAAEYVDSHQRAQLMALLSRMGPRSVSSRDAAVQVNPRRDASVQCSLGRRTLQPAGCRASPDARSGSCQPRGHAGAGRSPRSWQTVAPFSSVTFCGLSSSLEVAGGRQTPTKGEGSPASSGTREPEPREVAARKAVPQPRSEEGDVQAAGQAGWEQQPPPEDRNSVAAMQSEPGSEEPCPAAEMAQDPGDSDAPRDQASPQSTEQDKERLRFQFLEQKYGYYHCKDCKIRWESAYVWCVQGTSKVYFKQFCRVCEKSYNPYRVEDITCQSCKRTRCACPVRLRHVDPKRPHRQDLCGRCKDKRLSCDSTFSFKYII
UniProt Q9Y2T7: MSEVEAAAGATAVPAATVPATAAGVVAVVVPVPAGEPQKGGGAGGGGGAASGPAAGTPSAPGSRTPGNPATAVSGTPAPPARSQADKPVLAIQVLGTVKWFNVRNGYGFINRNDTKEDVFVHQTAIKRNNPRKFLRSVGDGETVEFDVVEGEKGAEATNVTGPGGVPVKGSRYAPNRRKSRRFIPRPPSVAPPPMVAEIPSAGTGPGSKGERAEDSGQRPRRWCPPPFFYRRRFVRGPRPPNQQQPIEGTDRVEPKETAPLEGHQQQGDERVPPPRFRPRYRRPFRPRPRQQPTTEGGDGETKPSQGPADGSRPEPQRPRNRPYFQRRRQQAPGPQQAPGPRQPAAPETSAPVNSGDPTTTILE

According to PMC6868374:

Biological target: ZAR1^4CS, cysteine-to-serine zinc finger mutant of mouse ZAR1 (mouse) (UniProt Q80SU3)
Test: co-IP; proteins co-expressed in HeLa cells for 48 h; lysis in 50 mM Tris-HCl pH 7.5, 150 mM NaCl, 10% glycerol, 0.5% NP-40; immunoprecipitation with affinity gels (Sigma) for 4 h at 4°C; western blot

- binding: no binding
Substance: MSY2 (from UniProt Q9Y2T7 1-364)

No constants are given. Whether binding was seen depends on the method and setting. Binding seen in cells or lysates may run through a third protein.
